Measured values reported in paper doi:10.64898/2025.12.19.694617.

Chains of the proteins cited; added tags and fusions are not shown.
UniProt Q99PV8: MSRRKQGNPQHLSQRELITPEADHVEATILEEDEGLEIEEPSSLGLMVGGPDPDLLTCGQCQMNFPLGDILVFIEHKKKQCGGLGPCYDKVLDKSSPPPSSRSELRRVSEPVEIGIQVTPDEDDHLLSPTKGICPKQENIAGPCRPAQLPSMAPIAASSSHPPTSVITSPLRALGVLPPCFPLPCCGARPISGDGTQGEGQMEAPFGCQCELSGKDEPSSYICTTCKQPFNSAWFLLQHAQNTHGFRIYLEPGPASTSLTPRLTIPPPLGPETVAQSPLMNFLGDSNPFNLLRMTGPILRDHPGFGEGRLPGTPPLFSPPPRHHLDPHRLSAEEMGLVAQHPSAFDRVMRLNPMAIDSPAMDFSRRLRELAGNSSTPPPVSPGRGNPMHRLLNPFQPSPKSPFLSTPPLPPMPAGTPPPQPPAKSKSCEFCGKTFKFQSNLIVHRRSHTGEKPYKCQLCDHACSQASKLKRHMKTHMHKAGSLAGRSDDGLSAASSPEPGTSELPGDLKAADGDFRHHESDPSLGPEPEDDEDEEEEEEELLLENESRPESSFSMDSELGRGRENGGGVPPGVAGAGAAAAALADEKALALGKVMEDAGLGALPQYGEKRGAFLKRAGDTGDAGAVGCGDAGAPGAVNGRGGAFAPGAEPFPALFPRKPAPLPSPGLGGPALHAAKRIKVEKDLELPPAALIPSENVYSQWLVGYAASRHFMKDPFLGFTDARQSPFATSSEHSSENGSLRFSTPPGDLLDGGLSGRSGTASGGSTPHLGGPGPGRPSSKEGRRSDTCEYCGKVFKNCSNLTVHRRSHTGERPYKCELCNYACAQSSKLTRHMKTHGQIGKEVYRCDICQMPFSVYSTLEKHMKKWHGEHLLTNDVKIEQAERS

Biological target: Bcl11b-streptag (mouse) (UniProt Q99PV8)
Assay: affinity purification with mass spectrometry

- binding: binds
B1: Nap1l1 (protein, UniProt P28656 1-391)
chain: MADIDNKEQSELDQDLEDVEEVEEEETGEETKIKARQLTVQMMQNPQILAALQERLDGLVDTPTGYIESLPKVVKRRVNALKNLQVKCAQIEAKFYEEVHDLERKYAVLYQPLFDKRFEIINAIYEPTEEECEWKPDEEDEVSEELKEKAKIEDEKKDEEKEDPKGIPEFWLTVFKNVDLLSDMVQEHDEPILKHLKDIKVKFSDAGQPMSFVLEFHFEPNDYFTNEVLTKTYRMRSEPDDSDPFSFDGPEIMGCTGCQIDWKKGKNVTLKTIKKKQKHKGRGTVRTVTKTVSNDSFFNFFAPPEVPENGDLDDDAEAILAADFEIGHFLRERIIPRSVLYFTGEAIEDDDDDYDEEGEEADEEGEEEGDEENDPDYDPKKDQNPAECKQQ

- binding: binds
B2: Pura (protein, UniProt P42669 1-321)
chain: MADRDSGSEQGGAALGSGGSLGHPGSGSGSGGGGGGGGGGGGSGGGGGAPGGLQHETQELASKRVDIQNKRFYLDVKQNAKGRFLKIAEVGAGGNKSRLTLSMSVAVEFRDYLGDFIEHYAQLGPSQPPDLAQAQDEPRRALKSEFLVRENRKYYMDLKENQRGRFLRIRQTVNRGPGLGSTQGQTIALPAQGLIEFRDALAKLIDDYGVEEEPAELPEGTSLTVDNKRFFFDVGSNKYGVFMRVSEVKPTYRNSITVPYKVWAKFGHTFCKYSEEMKKIQEKQREKRAACEQLHQQQQQQQEETTAATLLLQGEEEGEED

Results are given in words; binding and its absence hold for the method and conditions named. In cells and extracts the contact can be indirect. Here binding means that the protein was enriched with, or labelled near, the bait; the list need not be complete. One block for each binder: values may come before it.
